Experimental data reported in publication PMC8520724.
Results are given in words; binding and its absence hold for the method and conditions named. Binding seen in cells or lysates may run through a third protein. Some entries that bind do so weakly or less than the wild type.

Chains of the proteins cited; added tags and fusions are not shown.
UniProt Q96EB6: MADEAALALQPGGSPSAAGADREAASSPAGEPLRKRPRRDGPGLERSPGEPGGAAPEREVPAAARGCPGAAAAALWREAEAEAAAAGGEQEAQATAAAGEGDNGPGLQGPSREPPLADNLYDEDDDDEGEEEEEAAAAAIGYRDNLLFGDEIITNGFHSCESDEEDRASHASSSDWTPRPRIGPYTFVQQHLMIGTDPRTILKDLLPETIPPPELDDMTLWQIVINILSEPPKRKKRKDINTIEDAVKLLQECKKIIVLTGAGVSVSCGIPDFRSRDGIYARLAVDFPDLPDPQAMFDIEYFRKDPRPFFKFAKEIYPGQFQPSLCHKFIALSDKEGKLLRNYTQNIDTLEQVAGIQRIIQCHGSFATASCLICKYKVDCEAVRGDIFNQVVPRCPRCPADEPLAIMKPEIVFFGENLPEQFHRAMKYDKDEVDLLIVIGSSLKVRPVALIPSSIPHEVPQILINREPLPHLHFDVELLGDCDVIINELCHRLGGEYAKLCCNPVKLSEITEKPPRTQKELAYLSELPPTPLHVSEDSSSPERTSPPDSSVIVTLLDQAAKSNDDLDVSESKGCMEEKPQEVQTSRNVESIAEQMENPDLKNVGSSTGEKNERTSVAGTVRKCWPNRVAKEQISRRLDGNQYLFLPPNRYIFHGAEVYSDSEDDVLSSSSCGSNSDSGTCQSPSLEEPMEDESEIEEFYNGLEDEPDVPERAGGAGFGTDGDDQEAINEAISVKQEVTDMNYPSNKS
UniProt P08670: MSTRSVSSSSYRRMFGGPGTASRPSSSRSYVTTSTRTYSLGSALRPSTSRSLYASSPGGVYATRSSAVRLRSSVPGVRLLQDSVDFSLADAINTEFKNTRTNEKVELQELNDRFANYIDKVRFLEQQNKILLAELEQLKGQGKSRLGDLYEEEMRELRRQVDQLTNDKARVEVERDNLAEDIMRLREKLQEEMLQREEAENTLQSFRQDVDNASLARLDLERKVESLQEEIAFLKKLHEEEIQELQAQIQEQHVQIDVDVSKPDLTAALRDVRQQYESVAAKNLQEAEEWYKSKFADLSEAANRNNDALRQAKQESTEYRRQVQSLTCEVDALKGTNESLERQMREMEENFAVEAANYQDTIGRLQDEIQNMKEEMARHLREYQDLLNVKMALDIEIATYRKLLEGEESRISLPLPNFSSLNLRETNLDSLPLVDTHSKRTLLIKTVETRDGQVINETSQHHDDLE

Target: SIRT1 (human (endogenous in HTR8/SVneo cells and human first-trimester villi)) (UniProt Q96EB6)
Experiment: co-IP; reciprocal: anti-SIRT1 or anti-vimentin antibody on Protein A/G magnetic beads, 400 μg lysate of human first-trimester villi or of HTR8/SVneo cells in IP lysis buffer, 8 h; matched IgG isotype control; immunoblot

binding: binds
Substance: vimentin (from UniProt P08670 1-466)
